# Out of some 31,000 sequences screened, about 1,400 (4.5%) were called active.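 The calls were made as follows: active = median seed-adjusted z-score above 1 or below -1; inactive = the rest.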 The list shows a part of the results.
# Experiment: Novel Modifiers of Survival Motor Neuron (SMN) Protein: Gene Identification via Genome-wide siRNA Screen;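 also: luminescence tracks full-length SMN protein made from the SMN2 reporter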
# Conditions: HEK293T SMN2-luciferase reporter, siRNA knockdown, 72 h; actives lie on both sides
# Outline: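 Genome-wide siRNA screen (10418 genes, 3 siRNAs each, 1 pmol per well) by reverse transfection in HEK293T cells stably carrying an SMN2-luciferase reporter; luminescence after 72 hours, normalized to negative-control siRNA, log10-transformed, MAD-scored.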
row,Sequence,median seed-adjusted z-score
1,CUCUGUGCGUCUCAACUAUTT against JUP,inactive: 0.15
2,GCAGUUCCUAAAUUUCCGATT against SNX9,inactive: 0.684
3,GUGUUAUAACAAUCGAAGATT against CAPSL,inactive: -0.168
4,GGAAGUUCAUUACCAGAAUTT against PLCZ1,inactive: 0
5,GCUAGACCGACCCACCAUATT against FKBP6,active: -1.12
6,GGCUUAUGCAGAUCAAGAATT against ASNA1,inactive: 0.357
7,GGACCGACAUUGGUGUAUATT against JARID1A,inactive: 0.189
8,CCUUGUCACUGCGUUCUUATT against SLC22A3,inactive: 0.126
9,AGAUCUAUGAGAUUGAACATT against PRKAG3,active: -1.03
10,ACUUCGAGCUGGACCUUAATT against PCDHAC2,inactive: -0.107
11,CGGUCAUUUCGUCGAGAUATT against HSF5,inactive: 0.369
12,GCAUACCGGUCAAGUCCUATT against ATP13A2,inactive: 0.461
13,GCAACACCCAGGUAGUUUUTT against EIF4A1,active: -1.05
14,GGACUCUACCUGACAGAAATT against CAPN13,inactive: 0.208
15,GCAUCUAUCACAACAACUATT against MCM2,inactive: 0
16,CAAGUCCCAUUGAUCCUGATT against HLF,inactive: 0.0548
17,GUCAGUACCUAGAUCGACATT against SART3,inactive: 0
18,CACGGUAUAUGUUAGAGUATT against DSG3,inactive: 0
19,GUGACAGUGGUAUAACUAATT against TRIM52,inactive: 0.00966
20,GAUCUAUUCUUAAUGCCGATT against TFB1M,inactive: 0.172
21,GAACAACUACGUGAAUUAUTT against KHDRBS2,inactive: -0.335
22,GGAACAUUGCGAUUUGGAATT against CEPT1,inactive: 0.328

row,Sequence,median seed-adjusted z-score
1,GCCUACUUCUGUACACGGATT against MED12,inactive: -0.896
2,GCAUUGGUCAAGAAUAGCATT against KLHL2,inactive: 0
3,GGAACGCAUGGAGAACAUUTT against APEH,inactive: -0.0726
4,GACUAGCUAGAGACAAUGATT against PIK3CA,inactive: 0.0823
5,ACAUCGCGGUCAUCAAGUATT against MVD,inactive: -0.561
6,CCAUGCGACUCGAACCUAUTT against FXR2,inactive: -0.133
7,AGUCCUUCAUCUUCACAGATT against TBX10,inactive: 0.175
8,CGAGCAAUUUAGAGACUUATT against PCDHGA3,inactive: 0.27
9,AUAUCGCGCUCAUCACUAUTT against FOXD1,inactive: -0.659
10,GCUUGGGUACUGACAAAUATT against KPNA1,inactive: -0.0231
11,CCAAGUUUGUUACCAAGAUTT against TRPV4,inactive: -0.73
12,GGAAGGCAAAAGAGUAAAATT against NUDT2,inactive: 0.891
13,CCAGAAAAAGUAUAUGGGATT against COX6A1,inactive: -0.0917
14,CAUCCGGCCUGGAGUGAUATT against PAX8,inactive: 0
15,CAAAAGACCUGUAAUAAGATT against MAGT1,inactive: -0.0855
16,UGAUAUCCCUUGUCUGUAATT against RHOB,inactive: -0.776
17,GCAACUGAGUAGAGUCAAATT against UTP14A,inactive: -0.366
18,UGCUCAUGCUGAUCCGGGATT against TBC1D13,inactive: 0.33
19,GCAUCCUCGGCUCCACUAUTT against NEURL,inactive: -0.268
20,AGCCCUAUCUUUGCAAGAUTT against ZIC1,inactive: 0.162
21,GCAGCUAGAUUCACUUCUATT against KRT76,inactive: 0.726
22,GGACCAUCACCUUUGAGCATT against TPPP,inactive: -0.16

row,Sequence,median seed-adjusted z-score
1,GCGGCCCAAGGAUAUCAUATT against CAPN11,inactive: -0.273
2,CGAGCUUUUCACCACCAUATT against SRD5A2,inactive: 0.185
3,GAGCAGAUCUGGGACAAGATT against DHRS2,inactive: 0.35
4,GCUUCUACACGGCCCAACATT against FDXR,inactive: 0.6
5,CAACCGCAAAUAUGCCCAUTT against PLA2G2E,inactive: -0.37
6,GCAUAGACGAGGACCAGUATT against DRP2,inactive: -0.0555
7,CGAUCACAGCUACCGACAATT against PCDHGB3,inactive: 0.275
8,GCGGCUUCAUAUACAGAUATT against AHCYL2,inactive: 0.415
9,GGUCAAUGCUCUAAGUGAATT against CMKLR1,inactive: -0.704
10,CAGUUACACUCCAUACGCATT against RTCD1,inactive: 0.0794
11,GGCUCAUCUGGUCAACUUUTT against 4-Mar,inactive: 0.168
12,GAUGGACUGUAACAAAGCATT against GLS2,inactive: -0.793
13,GCAACGACUACUAUCCUGATT against RNPEPL1,inactive: 0
14,CUGCUACCUCUGACCCAAATT against DTD1,active: -1.58
15,GCAACCCGCCUUAACCAUATT against SLC16A7,inactive: 0
16,GUAUGAAAAUGAGUGCGAATT against BFSP1,inactive: 0.057
17,GAUUGUUGAUGACUGGUUATT against PTP4A1,inactive: 0.103
18,UGAAUUUCGUAGUUCCAUATT against CNOT8,inactive: 0.375
19,ACAAAUAACUGGAGUCAAATT against HSD17B11,inactive: 0.379
20,GAACUGUGACGAAAGGUUUTT against ZNF652,inactive: 0
21,GAAGCUAUUAUUACAAGAATT against REL,inactive: -0.358
22,GCUUUGAUUUCACCAACAATT against GCM2,inactive: -0.241

row,Sequence,median seed-adjusted z-score
1,GCCUCGAGCCUAUUCGUUATT against PCDHB4,inactive: 0.00998
2,GCUUGAGCAUUGGUAUUCATT against LIPG,inactive: -0.00236
3,CAGUAACUGUGGAAGAUCUTT against SLC5A8,inactive: 0.441
4,GGGAGUUGUGCAUAAAGAATT against MYO1C,inactive: 0.566
5,CGACGGCACCUGCAAUUUUTT against IMPA2,inactive: 0.0513
6,GGCAUUCACUCAUACGGCATT against ATIC,inactive: -0.0267
7,GGCAAGGGAUGAUCAUAUATT against ZNF420,inactive: -0.5
8,AGAAGAUCAUAGGCAGCAATT against KLK8,inactive: 0.736
9,CGAUUACAAGUUUAACGGUTT against ZFYVE9,inactive: 0.373
10,GGUUCGAAAUCGUGGAGCATT against KCNS2,inactive: 0.0597
11,GCUCUUUAAGGGUCACCCATT against MB,inactive: 0.504
12,GUCCAUGACUUGCCCAAUUTT against SLC14A1,inactive: -0.0585
13,AGCUUCCUACUAAAACGAATT against AGAP2,inactive: 0.0934
14,GAUGAGUAUGCAAAAUUUATT against ATR,inactive: -0.217
15,GAACCUCGAUGGGAUCAAATT against SFXN1,inactive: -0.746
16,GCAGUUUGGGAGUCCGGUATT against SLC16A13,inactive: -0.0537
17,GUUUUAUCCAGGACCAGUATT against GATAD1,inactive: 0.328
18,GAGAGAAAAGGGUCACAAATT against GPR61,inactive: 0
19,GGUAUGAAGUAAAAAGCGATT against FBN2,inactive: 0.373
20,GGUGAUUGCAUACUCGGAATT against OSGEP,inactive: 0.0178
21,AGACCAUAAUAGUGGAAAATT against SDHC,inactive: 0.00895
22,AGAGCAAUGUGACAAGUAUTT against CCRL2,inactive: 0.575

# Part of the list above, as tab-separated lines:
row	Sequence	median seed-adjusted z-score
17	GUUUUAUCCAGGACCAGUATT against GATAD1	inactive: 0.328
18	GAGAGAAAAGGGUCACAAATT against GPR61	inactive: 0
19	GGUAUGAAGUAAAAAGCGATT against FBN2	inactive: 0.373

# (continued)

row,Sequence,median seed-adjusted z-score
1,GGAUUGAAAACAAACUCUATT against RET,inactive: -0.931
2,CAGUCUUUUUGAUUCCCAUTT against NAT8,inactive: -0.228
3,AGCCGGUUCUUACCUCUUATT against TST,inactive: 0
4,GCAACACUUUCUGACCAUUTT against TRPM1,inactive: -0.527
5,CGUGCUAUCUGGAGUCCUATT against SERPINB3,inactive: -0.373
6,GUGUUUAACUCUAGUAUUUTT against HS3ST3B1,inactive: 0.937
7,GCUGAGGUUUGGAGGCAAATT against CDK5R2,inactive: -0.0965
8,CAACUGCAGCAGAUUCUAATT against MNAT1,inactive: -0.335
9,GGCGAUUUAUGGAUGAAGATT against MLL4,inactive: -0.259
10,CAUUCUAUGGGAUACCCUATT against SYT4,inactive: -0.354
11,CAAAGAGAUUUGUACAGAUTT against ZNF140,inactive: 0.587
12,GGUUGAAUAUGACAUAGAUTT against SMS,inactive: 0.186
13,GGAAGUACUGCGAACACGATT against LIMS2,inactive: 0
14,GAAGACCACUCGAAUCGAATT against HSP90B1,inactive: 0
15,GGAUGAUGAGCUCACGUAUTT against STAB1,inactive: 0.264
16,GAAUGAGGUUGACUUCUAUTT against CASQ2,inactive: 0.4
17,GUAUCUUCAUUGAGCUCAATT against EPHA2,inactive: 0.0948
18,GGCUGUCCUUAGUACCAGATT against CFTR,active: -1.23
19,GAGCAACAGUCACCAGAUATT against MAT2A,active: -1.9
20,GGAAGUAACACUCAACAAATT against PDZD2,inactive: -0.00167

# Two successive records from above, quoted:
row,Sequence,median seed-adjusted z-score
4,GCAACACUUUCUGACCAUUTT against TRPM1,inactive: -0.527
5,CGUGCUAUCUGGAGUCCUATT against SERPINB3,inactive: -0.373
